AC50 data for 54 molecules are collected here from PubChem BioAssay AID1487 (National Center for Advancing Translational Sciences (NCATS), 2009).

The structures appear in SMILES notation. The list shows a part of the results. The main result of the screen is listed elsewhere. These columns were measured beside it and carry no call. Most of these compounds were active or inconclusive in the main read-out, so they are no random draw. Potencies come from curve fits of mixed quality, noted in brackets.

This assay can be described thus: qHTS Assay for Modulators of Lamin A Splicing. The following applies: HeLa LMNA splicing GFP/RFP minigene ratio, 48 h. In outline:
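S3 HeLa stable clones carrying a lamin A-EGFP splicing minigene plus DsRed2 were seeded at 600 cells/well in Opti-MEM with 2% FBS, pin-dosed and incubated 48 h at 37°C. Acumen cytometry (488 nm) gave the GFP/RFP total-intensity ratio.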
In general terms: qHTS replaces the single test concentration by a dilution series.

Setting [1] is: measured here: GFP splicing reporter channel.
[2] abbreviates: measured here: RFP viability control channel.

As usually defined, the AC50 is the concentration giving half of the maximal activity seen. As to `CCCc1cc(=O)[nH]c(SCc2cc(=O)oc3cc(C)c(C(C)C)cc23)n1`, the AC50 reads like this: under setting [1], 15.8 µM [rising, partial curve]; under setting [2], 22.4 µM [rising, partial curve].

In the case of `O=C(CNC(=O)c1ccccc1)OCc1cc(=O)n2nc(C3CC3)sc2n1`, the AC50 was 0.00501 µM [falling, full curve, poor fit] under setting [1] and 0.00316 µM [falling, full curve, poor fit] under setting [2].

As for `COc1ccccc1NC(=O)c1cc2n(n1)C(C(F)(F)F)CC(c1ccc3c(c1)OCO3)N2` (centres undefined), the concentration at half-maximal activity (AC50) under setting [2] was 35.5 µM [rising, single point].

Turning to `Cc1cc(/C=N/NC(=O)c2c(Br)cnn2C)c(C)n1-c1cccc(Br)c1`, the concentration at half-maximal activity (AC50) under setting [1] was 35.5 µM [rising, single point] and the concentration at half-maximal activity (AC50) under setting [2] is 35.5 µM [rising, single point].

With `O=C(NCCN1CCOCC1)c1cc(-c2cccs2)on1`, the AC50 by setting is: under setting [1], 35.5 µM [falling, single point]; under setting [2], 25.1 µM [falling, single point].

As to `CCCCN1C(=O)C(=Nc2cccc3cnccc23)c2ccccc21`, the half-maximal activity concentration (AC50) under setting [1] is 2 µM [rising, partial curve, poor fit].

Consider `O=C(N/N=C/c1cn(-c2cccs2)nc1-c1ccccc1)c1ccc(O)cc1`, for which the concentration at half-maximal activity (AC50) under setting [2] is 35.5 µM [rising, single point].

As for `CCC1CCCCN1C(=O)CCS(=O)(=O)c1cc2c(cc1C)NC(=O)CO2` (centres undefined), under setting [1], the AC50 is 7.94 µM [falling, partial curve].

Turning to `COc1ccccc1CNC(=O)CC1Sc2ccccc2NC1=O` (centres undefined), the AC50 was 20 µM [falling, partial curve, poor fit] under setting [1] and 12.6 µM [falling, partial curve, poor fit] under setting [2].

As to `C=C(C)c1cccc(C(C)(C)NC(=O)N2CCC(C(N)=O)CC2)c1`, under setting [1], the concentration at half-maximal activity (AC50) is 0.126 µM [rising, full curve].

In the case of `Cc1cccc(/C=N/NC(=O)NC2CCCCC2)c1`, the concentration at half-maximal activity (AC50) under setting [2] was 12.6 µM [rising, single point].

As to `COc1ccc2cc(CCN3C(=O)c4ccccc4C3=O)c(=O)[nH]c2c1`, the AC50 under setting [2] was 4.47 µM [rising, single point].

Take `Cc1ccc(NC(=O)c2c([N+](=O)[O-])c(C(C)(C)C)nn2C)c(C)c1`: the concentration at half-maximal activity (AC50) reads like this: under setting [1], 11.2 µM [rising, partial curve]; under setting [2], 35.5 µM [rising, single point].

On to `COc1ccc2nc(SCC(=O)Nc3ccccc3OC)[nH]c2c1`, for which the AC50 under setting [2] was 22.4 µM [falling, single point].

In the case of `COc1ccc(Br)cc1/C=C/C(=O)c1ccc(NC(C)=O)cc1`, the half-maximal activity concentration (AC50) under setting [1] is 11.2 µM [falling, partial curve, poor fit] and the AC50 under setting [2] is 35.5 µM [falling, single point].

On to `NC(=S)N/N=C/c1cccc(O)c1O`, for which the AC50 under setting [1] was 3.55 µM [falling, full curve, poor fit] and the half-maximal activity concentration (AC50) under setting [2] is 5.62 µM [falling, single point].

For the molecule `Cc1cc(C)cc(-n2c(SCC(=O)N3CCCCCC3)nc3c([nH]c4ccccc43)c2=O)c1`, the AC50 under setting [1] was 0.0562 µM [rising, full curve, poor fit] and the half-maximal activity concentration (AC50) under setting [2] is 0.0631 µM [rising, full curve, poor fit].

Take `Cc1ccccc1Nc1cc(=O)oc2ccccc12`: the half-maximal activity concentration (AC50) was 11.2 µM [rising, partial curve] under setting [1] and 14.1 µM [rising, single point] under setting [2].

In the case of `COC(=O)C1=C(C)N(c2cccc(OC)c2)C(=O)/C1=C\c1ccco1`, the AC50 under setting [2] is 35.5 µM [rising, single point].

As for `Cc1ccc(C(=O)NCc2ccccc2)cc1NC(=O)c1nsc2ccccc12`, the AC50 reads like this: under setting [1], 35.5 µM [rising, single point]; under setting [2], 31.6 µM [rising, single point].

With `O=C(CCCSc1nc2ccccc2[nH]1)N1CCN(c2ccc([N+](=O)[O-])cc2)CC1`, under setting [2], the AC50 is 15.8 µM [rising, single point].

As for `Cc1oc2cc(O)ccc2c(=O)c1Oc1ccccc1Br`, under setting [1], the half-maximal activity concentration (AC50) was 25.1 µM [falling, partial curve].

As for `CCOc1nc(NCCO)nc(Nc2ccc([N+](=O)[O-])cc2)n1`, the AC50 runs as follows: under setting [1], 0.355 µM [falling, full curve]; under setting [2], 0.631 µM [falling, full curve, poor fit].

Regarding `Cc1c(NC(=O)CN2C(=O)c3ccccc3C2=O)c(=O)n(-c2ccccc2)n1C`, the AC50 runs as follows: under setting [1], 0.708 µM [falling, full curve]; under setting [2], 0.447 µM [falling, partial curve].

Consider `Cc1ccc(-c2n[nH]c(=S)n2/N=C/c2cccs2)cc1`, for which the AC50 under setting [2] was 0.631 µM [rising, full curve].

In the case of `O=[N+]([O-])c1ccc(Cl)cc1Sc1nc2ccccc2o1`, the half-maximal activity concentration (AC50) under setting [2] is 25.1 µM [rising, single point].

Take `N#CCCN1CCN(C(=S)c2ccc(-c3ccc(Cl)cc3)o2)CC1`: the concentration at half-maximal activity (AC50) under setting [1] was 12.6 µM [rising, single point].

Take `Cc1cc(C)cc(N/C(N)=N/c2nc(C)cc(C)n2)c1`: the AC50 is 10 µM [rising, single point] under setting [1] and 12.6 µM [rising, partial curve] under setting [2].

Regarding `CC(C)CCSc1nc(N)c(C#N)cc1C#N`, the half-maximal activity concentration (AC50) under setting [2] is 0.178 µM [rising, full curve, poor fit].

`c1ccc2c(c1)CCN(c1ncnc3nc[nH]c13)C2`: the half-maximal activity concentration (AC50) under setting [2] was 14.1 µM [rising, single point].

As to `COC(=O)Cn1c(=O)oc2ccc(C)cc21`, the concentration at half-maximal activity (AC50) under setting [1] is 0.141 µM [rising, full curve, poor fit].

Take `COc1ccc(-c2nc(NC(=O)c3n[nH]c(=O)c4ccccc34)sc2C)cc1`: the AC50 is, setting by setting: under setting [1], 1.58 µM [rising, full curve, poor fit]; under setting [2], 1.78 µM [rising, full curve].

For the molecule `O=C(c1ccc(Cn2cc(Br)cn2)cc1)N1N=C(C(F)F)CC1(O)C(F)F` (centres undefined), the half-maximal activity concentration (AC50) is, setting by setting: under setting [1], 0.158 µM [rising, full curve, poor fit]; under setting [2], 7.08 µM [rising, partial curve, poor fit].

Regarding `Cc1ccsc1/C=N/NC(=O)CSCc1ccc(Cl)cc1`, the concentration at half-maximal activity (AC50) under setting [2] was 12.6 µM [rising, single point].

For the molecule `Cc1cc(=O)oc2cc(OCC(=O)N3CCc4ccccc4C3)ccc12`, the half-maximal activity concentration (AC50) under setting [2] is 1.41 µM [falling, partial curve].

As to `O=S(=O)(c1cccc2c(Cl)cccc12)N1CCCNCC1`, the concentration at half-maximal activity (AC50) was 6.31 µM [falling, partial curve] under setting [1] and 0.1 µM [falling, full curve, poor fit] under setting [2].

On to `CCC(CC)C(=O)Nc1cc(Cl)ccc1C`, for which the AC50 under setting [1] was 0.0794 µM [rising, full curve, poor fit].

Take `CC(=O)Nc1ccc(S(=O)(=O)NC2=C(N3CCN(Cc4ccccc4)CC3)C(=O)c3ccccc3C2=O)cc1`: the AC50 is 12.6 µM [rising, single point] under setting [1] and 31.6 µM [rising, single point] under setting [2].

Consider `CCOC(=O)c1c(C)[nH]c(C)c1C(=O)CSc1nnc(-c2ccco2)n1Cc1ccccc1`, for which, under setting [2], the AC50 is 6.31 µM [falling, single point].

In the case of `CCOC(=O)C1=C(C)N(C)C(C)=C(C(=O)OCC)C1c1ccc(Cl)cc1`, the AC50 under setting [1] was 35.5 µM [falling, single point].

As for `COC(=O)c1sc(S(=O)(=O)Nc2ccc(C)c(C)c2)c(C(=O)OC)c1C`, the concentration at half-maximal activity (AC50) under setting [2] was 11.2 µM [rising, single point].

`COc1ccc2[nH]cc(CCNc3ncnc4ccc(-c5ccccc5C#N)cc34)c2c1`: the AC50 was 17.8 µM [falling, single point] under setting [1] and 15.8 µM [falling, partial curve] under setting [2].

On to `COC1CCN(C(=O)c2ccc(OC3CCN(CCc4ccccc4)CC3)cc2)CC1`, for which, under setting [2], the half-maximal activity concentration (AC50) is 0.0794 µM [falling, full curve, poor fit].

`CC(C)CN(C(=O)CN1CCN(c2ccc(O)cc2)CC1)c1c(N)n(CC(C)C)c(=O)[nH]c1=O`: the concentration at half-maximal activity (AC50) under setting [1] was 0.224 µM [rising, full curve] and the half-maximal activity concentration (AC50) under setting [2] is 0.141 µM [rising, full curve].

Turning to `c1ccc(N2CCN(c3nc4cc5c(cc4s3)OCCO5)CC2)cc1`, the concentration at half-maximal activity (AC50) under setting [2] was 5.01 µM [rising, full curve].

With `O=C(Nc1nc(N2C(=O)c3ccccc3C2=O)n(-c2ccccc2)n1)c1ccc(Cl)cc1`, the AC50 under setting [1] was 4.47 µM [falling, single point].

In the case of `Cc1ncsc1CCOC(=O)C1C2CC3CC(C2)CC1C3` (centres undefined), the half-maximal activity concentration (AC50) was 22.4 µM [rising, single point] under setting [1] and 35.5 µM [rising, single point] under setting [2].

As for `O=C(/C=C/c1ccc(Cl)cc1Cl)NC(=S)Nc1ccc(CN2CCOCC2)cc1`, the concentration at half-maximal activity (AC50) under setting [2] was 5.01 µM [rising, full curve, poor fit].

On to `COc1cccc(Oc2cn[nH]c2-c2ccc(OC)cc2O)c1`, for which the AC50 was 35.5 µM [rising, single point] under setting [1] and 20 µM [rising, partial curve] under setting [2].

As to `CC(=O)c1c(C)[nH]c(C(=O)COC(=O)c2cccc(S(=O)(=O)N(C)c3ccccc3)c2)c1C`, the half-maximal activity concentration (AC50) reads like this: under setting [1], 5.62 µM [rising, single point]; under setting [2], 28.2 µM [rising, single point].

In the case of `Cc1cc2ncn(/N=C/c3cccnc3)c2cc1C`, the AC50 under setting [2] was 20 µM [rising, single point].

For `c1ccc(SCc2cc(-c3ccccc3)no2)cc1`, the half-maximal activity concentration (AC50) by setting is: under setting [1], 0.126 µM [rising, full curve, poor fit]; under setting [2], 35.5 µM [rising, partial curve].

For `COc1cccc(/C=C/C2=CC(C)(C)NC(=S)N2)c1`, the AC50 under setting [2] is 4.47 µM [rising, partial curve, poor fit].

As for `CCCCCCCC1CC(CSc2ncn[nH]2)OC1=O` (centres undefined), the concentration at half-maximal activity (AC50) was 12.6 µM [rising, single point] under setting [1] and 35.5 µM [rising, single point] under setting [2].
